{
  "source": "PubChem BioAssay AID504467",
  "about": "(National Center for Advancing Translational Sciences (NCATS), 2011)",
  "note": "About 7,700 (2.3%) of roughly 330,000 compounds were called active. Inconclusive means that the source gave no clear call. Such entries were picked first, then a sample of the others. Calls follow the shape of the dose curve; as a rule, active = well fitted inhibition curve with a large enough effect; inconclusive = small, poorly fitted or top-dose-only effect, or effect the other way; inactive = flat fitted curve, though single readings scatter. Potencies beside an inconclusive call are fits to weak or partial responses and may not hold up. % is scaled to controls: 0 for no effect and ±100 for the full control effect; potency is read from the fitted curve at half-maximal effect.",
  "data": [
    {"experiment": "qHTS screen for small molecules that inhibit ELG1-dependent DNA repair in human embryonic kidney (HEK293T) cells expressing luciferase-tagged ELG1; also: nearly all actives have a fitted effect of over 55% in size", "conditions": "HEK293T ELG1-luciferase reporter, luminescence, 16 h, DNA damage induced by 5-fluorouridine; activity change, negative = inhibition: at 46.1 µM (top of the series)", "how_it_was_run": "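DMSO vehicle served as the neutral condition. Each well held 2,000 cells given 5-fluorouridine plus compound; after 16 hr at 37 °C/5% CO2, ONE-Glo was added and luciferase measured 30 min later.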", "values": [
      {"compound": "CN(CC(=O)Nc1ccc(S(=O)(=O)N(C)C)cc1)Cc1ccc(C(F)(F)F)cc1", "Potency": "inconclusive: 32.6 µM [inhibitor, partial curve, poor fit]"},
      {"compound": "CSC1=C(C#N)C(CC(C)C)C2=C(CCCC2=O)N1", "note": "(stereo unspecified)", "Potency": "inconclusive: 23.1 µM [inhibitor, partial curve]"},
      {"compound": "Cc1cc(C)c(S(=O)(=O)N2CCCOC2CNC(=O)C(=O)NCc2ccco2)c(C)c1", "note": "(stereo unspecified)", "Potency": "inconclusive: 20.6 µM [activator, partial curve, poor fit]"},
      {"compound": "COc1ccc(NC(=O)c2oc3ccc(S(=O)(=O)N4CCC5(CC4)OCCO5)cc3c2C)cc1", "Potency": "active: 5.8 µM"},
      {"compound": "Cc1ccc(-n2cnc(N)c2C(=O)c2cccc([N+](=O)[O-])c2)cc1", "Potency": "inconclusive: 25.9 µM [inhibitor, single point]"},
      {"compound": "CCN(CC(=O)Nc1ccc(C)c(S(=O)(=O)N(C)C)c1)Cc1ccccc1", "activity change, negative = inhibition": "inactive: -0.255%"},
      {"compound": "CC(CCO)Nc1nc2c(c(=O)n(C)c(=O)n2C)n1Cc1cccc(Br)c1", "note": "(stereo unspecified)", "activity change, negative = inhibition": "inactive: -12.3%"},
      {"compound": "COC(=O)c1cc(-c2ccccc2)on1", "activity change, negative = inhibition": "inactive: 0.922%"},
      {"compound": "O=C1c2ccccc2NC(c2ccc([N+](=O)[O-])cc2)N1O", "note": "(stereo unspecified)", "Potency": "inconclusive: 18.3 µM [inhibitor, partial curve]"},
      {"compound": "CCn1c(=O)cc(C(F)(F)F)[nH]c1=S", "Potency": "inconclusive: 18.3 µM [inhibitor, partial curve]"},
      {"compound": "Cc1cc(C)cc(C(=O)OCC(=O)Nc2cccc(S(=O)(=O)NC3=NCCCCC3)c2)c1", "Potency": "inconclusive: 11.6 µM [inhibitor, partial curve, poor fit]"},
      {"compound": "CCCCOC(=O)CSc1nnc(-c2ccc(Cl)cc2Cl)o1", "activity change, negative = inhibition": "inactive: 16.9%"},
      {"compound": "O=C(c1ccc(Cl)c(S(=O)(=O)N2CCCCCC2)c1)N1CCN(c2ccc(O)cc2)CC1", "Potency": "active: 20.6 µM"},
      {"compound": "COc1cc(C)nc(Oc2ccc(=O)[nH]n2)n1", "Potency": "inconclusive: 16.4 µM [activator, partial curve]"},
      {"compound": "Cc1ccc(-c2noc(=O)n2CC(=O)c2ccc(Cl)cc2)cc1", "Potency": "inconclusive: 18.3 µM [activator, single point]"},
      {"compound": "O=C(Nc1ccc2[nH]ncc2c1)c1ccccc1", "Potency": "inconclusive: 9.2 µM [activator, partial curve]"},
      {"compound": "COc1ccccc1C(=O)NNC(=O)c1ccc(C)cc1", "Potency": "inconclusive: 13 µM [activator, partial curve, poor fit]"},
      {"compound": "COc1cc(-c2nc3ccccn3c2NCc2ccccc2)ccc1SC1CCCCC1", "Potency": "inconclusive: 29.1 µM [inhibitor, single point]"},
      {"compound": "Cc1ccc2ccc(C(Nc3cccc(C(F)(F)F)c3)c3cccnc3)c(O)c2n1", "note": "(stereo unspecified)", "activity change, negative = inhibition": "inactive: -12.9%"},
      {"compound": "O=C1CC(N2CCN(c3ncccn3)CC2)C(=O)N1CCc1ccccc1", "note": "(stereo unspecified)", "activity change, negative = inhibition": "inactive: 16%"},
      {"compound": "O=C(NNC(=O)c1cc(-c2ccccc2)nc2ccccc12)Nc1cccc(Cl)c1", "Potency": "inconclusive: 23.1 µM [inhibitor, single point]"},
      {"compound": "COc1ccc(N2CCN(C(=O)c3cc(=O)c4cc(C)cc(C)c4o3)CC2)cc1", "Potency": "inconclusive: 29.1 µM [inhibitor, single point]"},
      {"compound": "COc1cccc(-c2cc3c(=O)n(-c4ccccc4)c(=S)[nH]c3s2)c1", "Potency": "inconclusive: 14.6 µM [activator, partial curve, poor fit]"},
      {"compound": "COc1ccc(NC(=O)c2ccc([N+](=O)[O-])s2)c([N+](=O)[O-])c1", "activity change, negative = inhibition": "inactive: -5.05%"},
      {"compound": "COc1ccc(S(=O)(=O)N2CCN(C(=O)c3c(C)nn(-c4ccccc4)c3Cl)CC2)cc1", "Potency": "inconclusive: 23.1 µM [inhibitor, partial curve]"},
      {"compound": "CC1CN(C(=O)NCc2ccccc2)c2cc(Cl)ccc2O1", "note": "(stereo unspecified)", "activity change, negative = inhibition": "inactive: 8.37%"},
      {"compound": "O=C(c1cc(-c2ccco2)nn1-c1cccc(Cl)c1)N1CCCCC1", "activity change, negative = inhibition": "inactive: -12.3%"},
      {"compound": "O=S(=O)(c1cccc(S(=O)(=O)N2CCCC2)c1)c1cccc(S(=O)(=O)N2CCCC2)c1", "Potency": "active: 20.6 µM"},
      {"compound": "O=C(NCC(=O)N1CCN(c2ncccn2)CC1)c1ccccc1F", "Potency": "inconclusive: 25.9 µM [activator, single point]"},
      {"compound": "Cc1ccccc1OCC(=O)OCC(=O)NC1CCCCCC1", "activity change, negative = inhibition": "inactive: -0.182%"},
      {"compound": "Cc1cc(SCC(=O)OCC(=O)NCC2CCCO2)c(C)cc1Br", "note": "(stereo unspecified)", "activity change, negative = inhibition": "inactive: 1.33%"},
      {"compound": "CC(=O)NNc1ncnc2c1cnn2-c1ccc(C)c(Cl)c1", "Potency": "inconclusive: 18.3 µM [activator, partial curve]"},
      {"compound": "COCCNC(=O)[C@H]1N2C(=O)c3ccccc3C2SC1(C)C", "note": "(stereo partly specified)", "activity change, negative = inhibition": "inactive: 12.7%"},
      {"compound": "O=C(Nc1cccc(/C=C/c2ccccn2)c1)c1ccc(-n2cncn2)c([N+](=O)[O-])c1", "Potency": "active: 9.2 µM"},
      {"compound": "COc1ccc(CN2CCCC(CO)(Cc3ccc(F)cc3)C2)cc1C", "note": "(stereo unspecified)", "activity change, negative = inhibition": "inactive: -1.02%"},
      {"compound": "COc1ccc(C(=O)NCCc2ccccc2)cc1OC", "Potency": "inconclusive: 20.6 µM [activator, partial curve]"},
      {"compound": "N#CCSc1nnc(-c2ccccc2)c(-c2ccccc2)n1", "activity change, negative = inhibition": "inactive: -15.6%"},
      {"compound": "CCc1ccc(C2(O)CC(C(F)(F)F)=NN2C(=O)Cc2ccc([N+](=O)[O-])cc2)cc1", "note": "(stereo unspecified)", "activity change, negative = inhibition": "inactive: 1.98%"},
      {"compound": "CCN(CC)S(=O)(=O)c1ccc(NN)nc1", "Potency": "inconclusive: 32.6 µM [inhibitor, partial curve, poor fit]"},
      {"compound": "COc1ccc(-n2cc(-c3ccccc3)c3c(N4CCN(CCO)CC4)ncnc32)cc1", "Potency": "inconclusive: 20.6 µM [inhibitor, single point]"},
      {"compound": "COC(=O)c1ccsc1NC(=O)CCS(=O)(=O)c1ccc(Cl)cc1", "activity change, negative = inhibition": "inactive: 24.2%"},
      {"compound": "O=C(NC(=S)Nc1cccc(O)c1)c1ccco1", "Potency": "inconclusive: 14.6 µM [activator, partial curve]"},
      {"compound": "Cc1ccccc1CSc1nnc(-c2cccs2)n1Cc1ccco1", "activity change, negative = inhibition": "inactive: -14.5%"},
      {"compound": "Cc1nc(N2N=C(c3ccc(Cl)cc3)CC2c2ccco2)sc1C(=O)N(C)C", "note": "(stereo unspecified)", "Potency": "inconclusive: 18.3 µM [inhibitor, single point]"},
      {"compound": "CCC(NC(=O)c1ccccc1NC(=O)c1ccc(OC)cc1)C(=O)N1CCCC1", "note": "(stereo unspecified)", "Potency": "inconclusive: 10.3 µM [activator, partial curve]"},
      {"compound": "O=C1Nc2ccc([N+](=O)[O-])cc2C1(O)N1CCCCCC1", "note": "(stereo unspecified)", "activity change, negative = inhibition": "inactive: 13%"},
      {"compound": "O=[N+]([O-])c1cccc(-c2nc(-c3ccccc3)no2)c1", "Potency": "inconclusive: 8.2 µM [activator, partial curve]"},
      {"compound": "Cc1nnc(NC(=O)C2CCN(S(=O)(=O)c3ccc(F)c(F)c3)CC2)o1", "activity change, negative = inhibition": "inactive: 10.3%"},
      {"compound": "COC(=O)Cc1ccc(NC(=S)N2CCN(c3cccc(O)c3)CC2)cc1", "Potency": "inconclusive: 23.1 µM [inhibitor, partial curve]"},
      {"compound": "O=C(Nc1nccs1)c1ccc(-c2ccc(Cl)cc2)o1", "Potency": "inconclusive: 4.61 µM [activator, partial curve]"},
      {"compound": "O=C(CN1CCN(S(=O)(=O)c2ccc(Br)cc2)CC1)Nc1ccccc1F", "Potency": "inconclusive: 16.4 µM [inhibitor, single point]"},
      {"compound": "CO/N=C/CC(=O)c1ccc([N+](=O)[O-])c(CS(=O)(=O)c2ccc(Cl)cc2)c1", "Potency": "inconclusive: 18.3 µM [inhibitor, single point]"},
      {"compound": "CCCCCN(C(=O)CCC(=O)OCc1cccc(Cl)c1)c1c(N)n(CCCC)c(=O)[nH]c1=O", "activity change, negative = inhibition": "inactive: -16.6%"},
      {"compound": "O=C(NCc1cc(Br)cc(Br)c1OC(=O)c1ccccc1[N+](=O)[O-])c1ccccc1", "Potency": "inconclusive: 23.1 µM [inhibitor, partial curve]"},
      {"compound": "Cc1ccc(/C=C2/C(=N)N3N=C(CC(=O)N4CCCC4)SC3=NC2=O)o1", "activity change, negative = inhibition": "inactive: 20.2%"},
      {"compound": "CCc1ccc(NC(=S)NCc2ccccc2)cc1", "Potency": "inconclusive: 18.3 µM [activator, partial curve]"},
      {"compound": "CC(C)c1ccc(C(=O)NNC(=O)c2ccncc2)cc1", "Potency": "inconclusive: 23.1 µM [activator, partial curve, poor fit]"},
      {"compound": "O=C(O)/C=C\\C(=O)Nc1ccccc1C#Cc1ccc(Br)cc1", "Potency": "inconclusive: 23.1 µM [activator, partial curve]"},
      {"compound": "O=C(Nc1ccc(Nc2ccccc2)cc1)c1cc([N+](=O)[O-])ccc1Cl", "Potency": "inconclusive: 4.11 µM [inhibitor, single point]"},
      {"compound": "COc1ccc(C(=O)/C=C2/c3ccccc3CC(C)(C)N2C)cc1OC", "Potency": "inconclusive: 29.1 µM [inhibitor, single point]"},
      {"compound": "NNc1nc2c(Cl)c(Cl)ccc2s1", "Potency": "inconclusive: 23.1 µM [activator, partial curve, poor fit]"},
      {"compound": "O=C(Cc1ccccc1)N/N=C/c1cc2c(cc1Cl)OCO2", "activity change, negative = inhibition": "inactive: 5.07%"},
      {"compound": "CCS(=O)(=O)Nc1ccc(C2=NN(C(=O)c3ccco3)C(c3ccco3)C2)cc1", "note": "(stereo unspecified)", "Potency": "inconclusive: 7.3 µM [inhibitor, partial curve, poor fit]"},
      {"compound": "CN(C)CCSc1nc(N)c2c3c(sc2n1)CN(C)CC3", "activity change, negative = inhibition": "inactive: -0.0809%"},
      {"compound": "COCCN=C1Sc2nc3cc(C)c(C)cc3cc2CN1Cc1cccs1", "Potency": "inconclusive: 8.2 µM [inhibitor, partial curve, poor fit]"},
      {"compound": "O=C(NCCc1ccccc1)c1cnc2ccccc2n1", "Potency": "inconclusive: 6.51 µM [activator, partial curve]"},
      {"compound": "c1ccc(C2[C@H]3CN(Cc4cccnc4)[C@H](c4ccccc4)C34CC2(c2cccnc2)C4)cc1", "note": "(stereo partly specified)", "activity change, negative = inhibition": "inactive: -12.8%"},
      {"compound": "OC(CN1CCN(c2ccccn2)CC1)Cn1c2ccccc2c2ccccc21", "note": "(stereo unspecified)", "Potency": "inconclusive: 20.6 µM [inhibitor, single point]"},
      {"compound": "COc1ccc2[nH]c(=O)c(CN(CC3CCCO3)S(=O)(=O)c3ccccc3F)cc2c1", "note": "(stereo unspecified)", "Potency": "inconclusive: 18.3 µM [inhibitor, partial curve]"},
      {"compound": "Cc1ccc(S(=O)(=O)NC(CC(C)C)C(=O)Nc2ccncc2)cc1", "note": "(stereo unspecified)", "activity change, negative = inhibition": "inactive: 5.13%"},
      {"compound": "N#CC1=C(N2CCCCC2)c2cc3c(n2C1=O)CCCC3", "Potency": "inconclusive: 23.1 µM [inhibitor, partial curve, poor fit]"}
    ]}
  ]
}
